# PubChem BioAssay AID652259 – Drosophila RNAi Screening Center – 2013
# Aim: 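Genome-wide hunt for genes that control Wingless pathway activity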 (primary screen)
# Cell system: Drosophila clone 8 imaginal disc epithelial cells
# Reagent: long dsRNA against Drosophila genes
# Treatment: pathway stimulated by co-transfected Wingless expression plasmid
# Detection: 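Dual luciferase reads per well after Wingless plasmid stimulation: reporter firefly light and Renilla control light; activity is firefly divided by Renilla, a ratio not deposited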
# Scale: firefly reporter light: higher = more Wg reporter light, before normalisation; Renilla control light: higher = more transfected or surviving cells
# Hit rule: 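Strong candidates differ from their plate mean by at least two out of four per-plate statistical tests; weak candidates meet just one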
# Meaning of the calls: active = candidate regulator (raises or lowers reporter); inactive = not a candidate
# The screen tested about 22,000 reagents; shown is a random part of those with a known target gene and a result. Over the whole deposit, 233 (1.1%) got an active call. 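Light values are raw, unnormalised plate reads; the ratio scores behind the reporter calls were not deposited.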 Names joined by + are all predicted targets of the reagent. Reagent sequences are not shown. The record does not give: the amount of reagent, the time to read-out, the dose of the treatment.
gene,PubChem SID,"reporter change call, replicate 1","firefly reporter light, replicate 1","firefly reporter light, replicate 2","Renilla control light, replicate 1","Renilla control light, replicate 2",outcome
Rab3-GAP,SID104181793,,18561,,5168,,inactive
Fbl6,SID104186127,,12464,,2208,,inactive
ccb,SID104200293,,15067,,10790,,inactive
CG43153,SID104180981,,18825,,10041,,inactive
DMAP1,SID104185836,Wg reporter activity raised,53760,,2876,,active
Gapvd1,SID104199544,,11284,,6605,,inactive
Arl4,SID104196948,,18789,,14672,,inactive
Polr3I,SID104199714,,1760,6602,967,2108,inactive
CG11584,SID104199200,,25124,,11648,,inactive
AgmNAT,SID104197864,,12348,,6362,,inactive
PolQ,SID104196798,,15403,,5222,,inactive
CG15539,SID104194867,,8294,,3003,,inactive
CG13151,SID104186068,,5703,,2320,,inactive
fipi,SID104180257,,4272,9264,696,1827,inactive
eIF5,SID104199957,,4032,5408,1244,1849,inactive
Pcp,SID104183187,,2738,9616,1028,3184,inactive
CG12439,SID104181960,,2176,3424,761,2037,inactive
CG15096,SID104186317,,24145,,7136,,inactive
CG7579,SID104190677,,4611,,1944,,inactive
BuGZ,SID104182434,,15738,,2198,,inactive
BuGZ,SID104182435,,2310,10325,967,4439,inactive
CG6583,SID104182764,,3097,8208,915,2649,inactive
CG11475,SID104183905,,7909,,2551,,inactive
CG6834,SID104195917,Wg reporter activity lowered,4539,,3465,,active
Eaf,SID104184842,,23622,,5382,,inactive
Eaf,SID104185844,,21800,,8183,,inactive
Eaf,SID104201612,,4.83e5,4.48e5,1.75e5,2.08e5,inactive
FBXO11,SID104196289,,7437,,2796,,inactive
CG43335,SID104195556,,13302,,3751,,inactive
CG43335,SID104202067,,4.55e5,4.73e5,2.05e5,1.23e5,inactive
Lcch3,SID104201719,,6.30e5,6.84e5,2.17e5,2.19e5,inactive
Vps37B,SID104191957,,5014,,953,,inactive
BobA,SID104189681,,7597,,2832,,inactive
CG7016,SID104195966,,21976,,21031,,inactive
Rab26,SID104191629,,1505,,299,,inactive
Rab26,SID104191630,,15888,,4403,,inactive
Rab26,SID104191631,,16054,,5164,,inactive
GstT3,SID104200333,,16828,,8699,,inactive
CG17648,SID104180300,,923,5973,609,2480,inactive
FucTD,SID104188426,,4997,,1968,,inactive
CG42816,SID104191022,,5938,,3065,,inactive
CG7110,SID104182803,Wg reporter activity lowered,6402,,3041,,inactive
CG7110,SID104182804,,1986,6900,1318,3187,inactive
CG15879,SID104188279,,6854,,3506,,inactive
Osi14,SID104192160,,10064,,2401,,inactive
Hmg-2,SID104184346,,6704,,1699,,inactive
Rtc1,SID104200077,,1985,4850,940,2218,inactive
Dhdds,SID104197548,,13065,,6616,,inactive
otk2,SID104187095,,5241,,2265,,inactive
SmD2,SID104192328,,12528,,2435,,inactive
Ssl2,SID104194187,,9532,,3882,,inactive
Ssl2,SID104202155,,5.31e5,6.66e5,2.32e5,3.10e5,inactive
CG43326 + CG43325,SID104183949,,3466,5141,763,2272,inactive
CG34002,SID104189304,,4448,,1475,,inactive
Jhbp11,SID104194975,,7029,,2896,,inactive
hay,SID104191146,,9153,,1648,,inactive
Mfap1,SID104187946,,15120,,2755,,inactive
CG13002,SID104199313,,20786,,8994,,inactive
CG11566 (retired record) + stg1,SID104200265,,18336,,3404,,inactive
CG11566 (retired record) + stg1,SID104200273,,16176,,8853,,inactive
CG11566 (retired record) + stg1,SID104200274,,22050,,9206,,inactive
CG11566 (retired record) + stg1,SID104200275,,26147,,8829,,inactive
CG33490,SID104190379,,2346,,1332,,inactive
Art1,SID104195855,,5746,,1913,,inactive
Glys,SID104195922,,5241,,2475,,inactive
tfc,SID104187745,,2933,,1850,,inactive
tfc,SID104187746,,2853,,1216,,inactive
tfc,SID104188418,,15370,,4138,,inactive
tfc,SID104201381,,8.53e5,7.97e5,4.29e5,3.64e5,inactive
Gr64f,SID104188239,,3786,,2487,,inactive
Nuf2,SID104182915,,10896,,3554,,inactive
CG32379,SID104190110,,1088,8864,989,2992,inactive
l(3)L1231,SID104196115,,4896,,2672,,inactive
Myo10A,SID104199550,,12406,,4224,,inactive
Myo10A,SID104199626,,21724,,10040,,inactive
Myo10A,SID104199629,,16320,,7312,,inactive
Cnb,SID104188361,,13719,,4720,,inactive
CG8176,SID104196186,,14867,,3268,,inactive
CR14798,SID104197748,,26440,,18477,,inactive
CG18563,SID104182468,,3261,8648,1572,4069,inactive
CG17821,SID104186488,,5442,,1925,,inactive
CAH13,SID104185920,,2314,6091,576,2516,inactive
CG14043,SID104182160,,2403,5905,772,1985,inactive
Usp32,SID104190771,,13725,,4646,,inactive
Obp56b,SID104186343,,6873,,2013,,inactive
Trim9,SID104182034,,1725,7049,457,2880,inactive
Atat,SID104190184,,2835,,1137,,inactive
Rab21,SID104200760,,17653,,10422,,inactive
Cyp4ad1,SID104187161,,8978,,3648,,inactive
CG6847,SID104199005,,3520,,1405,,inactive
CG6847,SID104199801,,14490,,7286,,inactive
CG6813,SID104195914,,18089,,3445,,inactive
foi,SID104190511,,3929,11901,1275,3432,inactive

Records above whose gene name starts with D or d (2):
gene,PubChem SID,"reporter change call, replicate 1","firefly reporter light, replicate 1","firefly reporter light, replicate 2","Renilla control light, replicate 1","Renilla control light, replicate 2",outcome
DMAP1,SID104185836,Wg reporter activity raised,53760,,2876,,active
Dhdds,SID104197548,,13065,,6616,,inactive
